Literature values, collected in US8450339B2, “Compositions for treatment of common cold” (Takeda Pharma A/S, priority 2001, dated 2013).

Conditions: aqueous solution

Structure (SMILES): CC(C)[N+]1(C)[C@@H]2CC[C@H]1CC(OC(=O)C(CO)c1ccccc1)C2.[Br-] (stereo partly shown) [ipratropium bromide]
- Stability optimum, pH: 3.5
